Results are given in words; binding and its absence hold for the method and conditions named. Binding seen in cells or lysates may run through a third protein. Some entries that bind do so weakly or less than the wild type.
Target: T1, CNPase (2',3'-cyclic nucleotide-3'-phosphodiesterase) (rat (endogenous in H9c2)) (UniProt P13233)
T1 sequence: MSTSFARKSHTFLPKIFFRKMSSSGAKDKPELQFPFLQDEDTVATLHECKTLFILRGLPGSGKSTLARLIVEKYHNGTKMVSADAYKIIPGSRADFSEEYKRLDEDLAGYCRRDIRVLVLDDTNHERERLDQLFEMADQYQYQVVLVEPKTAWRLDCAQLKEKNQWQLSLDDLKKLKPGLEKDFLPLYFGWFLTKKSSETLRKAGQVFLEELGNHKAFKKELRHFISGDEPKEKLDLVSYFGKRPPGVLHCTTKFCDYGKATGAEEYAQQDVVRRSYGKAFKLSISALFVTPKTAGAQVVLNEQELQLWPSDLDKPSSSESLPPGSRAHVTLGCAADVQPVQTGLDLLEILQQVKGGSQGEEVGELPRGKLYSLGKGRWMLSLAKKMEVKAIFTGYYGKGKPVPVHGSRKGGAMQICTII
Experiment: co-IP; H9c2 cell lysate (co-immunoprecipitation kit); TG2 antibody or CNPase antibody or control IgG, protein A and G, 4°C 12 h; Western blot; also after TG2 knock-down (siRNA)

Chains of the proteins cited; added tags and fusions are not shown.
UniProt Q5XFX0: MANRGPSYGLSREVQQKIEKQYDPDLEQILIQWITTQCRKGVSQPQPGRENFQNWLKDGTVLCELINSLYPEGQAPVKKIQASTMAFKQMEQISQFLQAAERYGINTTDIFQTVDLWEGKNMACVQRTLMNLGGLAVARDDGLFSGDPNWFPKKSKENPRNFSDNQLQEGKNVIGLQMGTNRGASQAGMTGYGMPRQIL

- binding: binds
Substance: transgelin2 (from UniProt Q5XFX0 1-199)

From paper PMC12301622
